In article PMC10754121 one finds binding data, which are given here for eight molecules.

The chains behind the UniProt entries cited, without tags or fusion partners.
UniProt O60488: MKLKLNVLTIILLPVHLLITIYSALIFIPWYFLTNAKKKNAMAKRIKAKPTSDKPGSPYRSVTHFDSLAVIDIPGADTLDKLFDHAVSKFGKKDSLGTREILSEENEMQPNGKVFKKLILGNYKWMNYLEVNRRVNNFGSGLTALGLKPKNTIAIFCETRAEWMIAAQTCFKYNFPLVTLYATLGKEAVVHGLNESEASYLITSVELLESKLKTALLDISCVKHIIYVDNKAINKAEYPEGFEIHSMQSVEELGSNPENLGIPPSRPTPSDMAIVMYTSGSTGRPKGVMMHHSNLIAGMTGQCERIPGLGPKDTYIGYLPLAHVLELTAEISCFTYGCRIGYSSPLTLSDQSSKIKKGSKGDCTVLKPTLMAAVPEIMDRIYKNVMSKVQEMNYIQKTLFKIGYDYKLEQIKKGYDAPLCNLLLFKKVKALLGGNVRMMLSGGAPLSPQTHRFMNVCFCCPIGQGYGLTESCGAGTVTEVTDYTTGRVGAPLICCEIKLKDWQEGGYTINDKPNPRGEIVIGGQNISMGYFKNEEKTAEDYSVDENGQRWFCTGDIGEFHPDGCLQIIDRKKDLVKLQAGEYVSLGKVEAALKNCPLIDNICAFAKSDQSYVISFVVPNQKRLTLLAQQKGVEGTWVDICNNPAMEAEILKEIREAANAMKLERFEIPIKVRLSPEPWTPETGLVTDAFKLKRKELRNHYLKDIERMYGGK
UniProt O95573: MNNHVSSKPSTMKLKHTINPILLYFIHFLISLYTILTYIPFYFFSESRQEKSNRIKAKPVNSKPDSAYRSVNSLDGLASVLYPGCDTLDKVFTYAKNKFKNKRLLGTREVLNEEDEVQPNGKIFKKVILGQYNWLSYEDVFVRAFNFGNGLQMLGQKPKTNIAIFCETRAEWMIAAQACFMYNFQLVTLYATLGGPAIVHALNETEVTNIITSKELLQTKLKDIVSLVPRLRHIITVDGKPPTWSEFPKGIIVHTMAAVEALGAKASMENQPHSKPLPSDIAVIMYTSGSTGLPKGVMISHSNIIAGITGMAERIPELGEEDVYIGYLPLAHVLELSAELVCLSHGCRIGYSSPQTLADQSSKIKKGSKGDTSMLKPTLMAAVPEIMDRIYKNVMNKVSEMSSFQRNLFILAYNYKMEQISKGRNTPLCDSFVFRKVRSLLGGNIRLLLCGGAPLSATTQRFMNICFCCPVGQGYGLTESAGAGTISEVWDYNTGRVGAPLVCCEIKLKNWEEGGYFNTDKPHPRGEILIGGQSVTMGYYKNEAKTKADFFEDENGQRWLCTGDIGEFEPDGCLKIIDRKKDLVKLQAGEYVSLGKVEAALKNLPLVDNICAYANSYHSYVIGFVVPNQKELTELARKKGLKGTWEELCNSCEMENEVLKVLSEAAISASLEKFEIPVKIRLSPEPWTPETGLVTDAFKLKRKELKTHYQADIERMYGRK
UniProt Q9Y4X5: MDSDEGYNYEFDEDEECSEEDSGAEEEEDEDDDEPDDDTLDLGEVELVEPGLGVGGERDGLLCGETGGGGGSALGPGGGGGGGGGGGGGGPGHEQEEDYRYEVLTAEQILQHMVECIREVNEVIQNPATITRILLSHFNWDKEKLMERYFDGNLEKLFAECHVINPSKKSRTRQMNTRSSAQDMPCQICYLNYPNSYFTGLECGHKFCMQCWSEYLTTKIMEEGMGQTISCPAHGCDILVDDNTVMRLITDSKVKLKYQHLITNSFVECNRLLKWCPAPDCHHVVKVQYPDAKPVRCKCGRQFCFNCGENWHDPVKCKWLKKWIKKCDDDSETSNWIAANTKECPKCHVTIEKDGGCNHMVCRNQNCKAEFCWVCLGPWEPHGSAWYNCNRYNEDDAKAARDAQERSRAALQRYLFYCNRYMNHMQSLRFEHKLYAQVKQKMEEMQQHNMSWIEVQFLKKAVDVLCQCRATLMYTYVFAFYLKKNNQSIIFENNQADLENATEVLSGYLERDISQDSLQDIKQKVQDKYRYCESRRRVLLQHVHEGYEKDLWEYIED
UniProt Q7Z6E9: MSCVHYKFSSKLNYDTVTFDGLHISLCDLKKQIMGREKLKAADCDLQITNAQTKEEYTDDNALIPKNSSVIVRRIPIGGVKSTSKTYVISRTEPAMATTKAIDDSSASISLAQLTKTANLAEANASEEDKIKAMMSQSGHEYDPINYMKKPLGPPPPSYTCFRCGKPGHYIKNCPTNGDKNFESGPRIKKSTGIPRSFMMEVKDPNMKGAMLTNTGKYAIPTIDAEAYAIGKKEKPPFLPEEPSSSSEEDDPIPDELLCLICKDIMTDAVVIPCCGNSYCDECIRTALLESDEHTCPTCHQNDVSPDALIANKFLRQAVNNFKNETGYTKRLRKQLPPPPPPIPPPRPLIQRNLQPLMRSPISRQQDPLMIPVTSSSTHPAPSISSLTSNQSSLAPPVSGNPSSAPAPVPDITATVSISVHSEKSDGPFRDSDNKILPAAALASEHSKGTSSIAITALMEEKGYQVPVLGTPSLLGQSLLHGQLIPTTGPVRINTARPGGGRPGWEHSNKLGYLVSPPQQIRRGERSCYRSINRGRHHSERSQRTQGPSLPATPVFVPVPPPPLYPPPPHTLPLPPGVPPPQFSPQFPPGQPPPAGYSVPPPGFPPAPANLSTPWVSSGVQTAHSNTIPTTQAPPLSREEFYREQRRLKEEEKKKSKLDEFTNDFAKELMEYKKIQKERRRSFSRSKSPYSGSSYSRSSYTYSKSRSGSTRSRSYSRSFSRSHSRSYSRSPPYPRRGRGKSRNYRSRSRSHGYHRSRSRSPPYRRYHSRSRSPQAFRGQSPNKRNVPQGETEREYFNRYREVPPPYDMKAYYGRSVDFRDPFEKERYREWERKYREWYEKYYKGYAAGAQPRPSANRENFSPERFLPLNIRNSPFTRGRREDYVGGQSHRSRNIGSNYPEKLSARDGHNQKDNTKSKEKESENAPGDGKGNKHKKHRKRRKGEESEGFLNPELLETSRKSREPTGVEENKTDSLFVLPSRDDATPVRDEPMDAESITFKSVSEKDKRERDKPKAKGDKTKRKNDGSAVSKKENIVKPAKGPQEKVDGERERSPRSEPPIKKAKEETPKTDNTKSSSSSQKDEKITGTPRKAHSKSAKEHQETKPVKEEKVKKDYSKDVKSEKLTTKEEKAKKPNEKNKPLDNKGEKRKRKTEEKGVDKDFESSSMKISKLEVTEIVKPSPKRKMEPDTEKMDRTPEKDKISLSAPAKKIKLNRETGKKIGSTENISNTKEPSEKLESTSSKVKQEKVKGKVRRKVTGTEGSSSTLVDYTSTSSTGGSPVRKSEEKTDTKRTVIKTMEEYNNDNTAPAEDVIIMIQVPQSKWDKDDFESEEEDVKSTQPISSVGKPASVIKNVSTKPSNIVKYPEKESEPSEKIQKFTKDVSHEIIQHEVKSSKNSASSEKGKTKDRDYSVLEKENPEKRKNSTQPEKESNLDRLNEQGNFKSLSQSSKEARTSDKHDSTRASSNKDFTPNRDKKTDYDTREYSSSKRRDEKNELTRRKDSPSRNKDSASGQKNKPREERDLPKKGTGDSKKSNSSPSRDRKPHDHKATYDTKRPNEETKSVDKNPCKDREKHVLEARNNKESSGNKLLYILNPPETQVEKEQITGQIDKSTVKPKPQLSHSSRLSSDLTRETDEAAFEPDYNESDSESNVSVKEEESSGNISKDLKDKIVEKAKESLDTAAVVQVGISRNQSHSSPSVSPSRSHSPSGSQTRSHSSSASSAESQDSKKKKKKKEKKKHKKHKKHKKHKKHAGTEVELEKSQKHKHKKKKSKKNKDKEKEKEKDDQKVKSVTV
UniProt Q14258: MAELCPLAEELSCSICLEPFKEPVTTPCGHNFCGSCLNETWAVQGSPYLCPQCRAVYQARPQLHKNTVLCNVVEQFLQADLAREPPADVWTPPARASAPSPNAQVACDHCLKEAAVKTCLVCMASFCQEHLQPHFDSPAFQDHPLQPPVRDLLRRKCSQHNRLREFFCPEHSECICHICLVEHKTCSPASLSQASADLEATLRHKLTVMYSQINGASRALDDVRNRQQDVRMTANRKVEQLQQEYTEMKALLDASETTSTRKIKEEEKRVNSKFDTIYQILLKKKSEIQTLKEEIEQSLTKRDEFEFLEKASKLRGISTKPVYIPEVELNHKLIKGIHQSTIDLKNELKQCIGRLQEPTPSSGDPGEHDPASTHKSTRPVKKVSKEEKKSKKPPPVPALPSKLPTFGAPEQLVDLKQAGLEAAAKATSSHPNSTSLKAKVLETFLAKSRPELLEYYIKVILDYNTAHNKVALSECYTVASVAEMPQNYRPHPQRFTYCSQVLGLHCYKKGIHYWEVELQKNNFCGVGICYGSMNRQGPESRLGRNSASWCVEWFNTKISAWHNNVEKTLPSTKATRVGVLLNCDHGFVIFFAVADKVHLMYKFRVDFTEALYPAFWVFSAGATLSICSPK
UniProt Q9UPN9: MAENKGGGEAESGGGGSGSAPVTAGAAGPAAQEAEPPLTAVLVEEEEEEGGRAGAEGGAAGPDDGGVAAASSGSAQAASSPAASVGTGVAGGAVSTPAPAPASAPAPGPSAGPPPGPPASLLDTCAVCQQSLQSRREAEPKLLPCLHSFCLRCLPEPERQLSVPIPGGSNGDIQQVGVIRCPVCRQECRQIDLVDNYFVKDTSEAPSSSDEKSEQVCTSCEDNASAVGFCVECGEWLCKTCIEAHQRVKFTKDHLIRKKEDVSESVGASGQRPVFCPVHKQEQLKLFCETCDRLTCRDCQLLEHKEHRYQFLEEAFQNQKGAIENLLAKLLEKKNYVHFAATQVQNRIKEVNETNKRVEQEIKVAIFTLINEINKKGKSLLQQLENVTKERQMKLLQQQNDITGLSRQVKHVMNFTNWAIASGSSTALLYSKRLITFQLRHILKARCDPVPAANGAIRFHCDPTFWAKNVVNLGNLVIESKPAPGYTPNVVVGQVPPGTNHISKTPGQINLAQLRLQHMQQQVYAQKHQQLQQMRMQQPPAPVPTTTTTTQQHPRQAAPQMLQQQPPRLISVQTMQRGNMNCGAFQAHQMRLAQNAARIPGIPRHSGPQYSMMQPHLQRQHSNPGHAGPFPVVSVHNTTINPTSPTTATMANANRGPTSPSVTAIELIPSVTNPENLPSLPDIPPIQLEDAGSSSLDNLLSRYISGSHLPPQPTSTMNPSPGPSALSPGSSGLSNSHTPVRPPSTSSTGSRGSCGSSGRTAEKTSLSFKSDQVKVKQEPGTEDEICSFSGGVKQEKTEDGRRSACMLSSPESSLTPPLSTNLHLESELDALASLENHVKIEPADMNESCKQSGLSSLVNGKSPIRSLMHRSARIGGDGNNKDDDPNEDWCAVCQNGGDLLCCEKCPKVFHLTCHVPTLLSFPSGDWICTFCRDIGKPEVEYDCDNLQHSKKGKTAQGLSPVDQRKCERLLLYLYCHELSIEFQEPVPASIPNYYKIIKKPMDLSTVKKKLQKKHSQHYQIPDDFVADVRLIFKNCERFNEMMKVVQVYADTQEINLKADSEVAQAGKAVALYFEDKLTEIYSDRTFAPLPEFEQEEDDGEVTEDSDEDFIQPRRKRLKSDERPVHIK

These are yes or no findings as the source states them, for the method shown. In cells and extracts the contact can be indirect. A yes stands for co-enrichment or nearness to the bait. Other partners may have been found.

The target in experiment [1] is T1, CARM1 (enriched by IP for mass spectrometry) (UniProt Q86X55).
T1 sequence: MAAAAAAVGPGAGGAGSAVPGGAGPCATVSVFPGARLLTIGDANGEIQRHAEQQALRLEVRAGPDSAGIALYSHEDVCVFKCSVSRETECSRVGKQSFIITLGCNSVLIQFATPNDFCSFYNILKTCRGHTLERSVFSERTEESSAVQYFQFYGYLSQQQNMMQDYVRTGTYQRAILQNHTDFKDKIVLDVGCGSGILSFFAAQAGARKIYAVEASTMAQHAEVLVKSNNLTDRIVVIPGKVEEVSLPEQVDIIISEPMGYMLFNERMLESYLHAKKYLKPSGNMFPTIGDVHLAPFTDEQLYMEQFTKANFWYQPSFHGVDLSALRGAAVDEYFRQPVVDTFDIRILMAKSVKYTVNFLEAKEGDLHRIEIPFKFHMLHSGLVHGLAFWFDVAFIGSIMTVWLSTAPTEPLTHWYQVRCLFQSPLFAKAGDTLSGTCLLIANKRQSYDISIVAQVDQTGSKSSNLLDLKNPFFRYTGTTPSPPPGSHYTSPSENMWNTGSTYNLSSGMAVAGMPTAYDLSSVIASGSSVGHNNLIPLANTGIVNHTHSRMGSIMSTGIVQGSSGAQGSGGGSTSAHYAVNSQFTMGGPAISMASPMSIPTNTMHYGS
As to the kind of experiment: affinity purification with mass spectrometry; CARM1 enriched by IP, separated by SDS-PAGE, gel bands digested with trypsin, Orbitrap Fusion; cells not given.

Experiment [2] concerns the target ACSL4 (in the IP samples for mass spectrometry) (UniProt O60488). As to the kind of experiment: affinity purification with mass spectrometry; ACSL4 enriched by IP, separated by SDS-PAGE, gel bands digested with trypsin, Orbitrap Fusion; cells not given.

In the case of “ACSL3 (hit of the CARM1 mass spectrometry) (from UniProt O95573 1-720) (enzyme)”, the binding entry in experiment [1] is recorded as “binds”.
With “ARIH1 (hit of the ACSL4 mass spectrometry) (from UniProt Q9Y4X5 1-557) (enzyme)”, the binding result in experiment [2] is listed as “binds”.
As to “RBBP6 (hit of the ACSL4 mass spectrometry) (from UniProt Q7Z6E9 1-1792) (enzyme)”, the binding result in experiment [2] is reported as “binds”.
The same measure, in the same setting: under “TRIM25 (hit of the ACSL4 mass spectrometry) (from UniProt Q14258 1-630) (enzyme)” stands “binds”; under “TRIM33 (hit of the ACSL4 mass spectrometry) (from UniProt Q9UPN9 1-1127) (enzyme)”, “binds”.

B1: RNF25 (hit of the ACSL4 mass spectrometry) (enzyme, UniProt Q96BH1 1-459)
chain: MAASASAAAGEEDWVLPSEVEVLESIYLDELQVIKGNGRTSPWEIYITLHPATAEDQDSQYVCFTLVLQVPAEYPHEVPQISIRNPRGLSDEQIHTILQVLGHVAKAGLGTAMLYELIEKGKEILTDNNIPHGQCVICLYGFQEKEAFTKTPCYHYFHCHCLARYIQHMEQELKAQGQEQEQERQHATTKQKAVGVQCPVCREPLVYDLASLKAAPEPQQPMELYQPSAESLRQQEERKRLYQRQQERGGIIDLEAERNRYFISLQQPPAPAEPESAVDVSKGSQPPSTLAAELSTSPAVQSTLPPPLPVATQHICEKIPGTRSNQQRLGETQKAMLDPPKPSRGPWRQPERRHPKGGECHAPKGTRDTQELPPPEGPLKEPMDLKPEPHSQGVEGPPQEKGPGSWQGPPPRRTRDCVRWERSKGRTPGSSYPRLPRGQGAYRPGTRRESLGLESKDGS
In the case of B1, in experiment [2], the binding result is listed as “binds”.

B2: CBLL1 (hit of the ACSL4 mass spectrometry) (enzyme, UniProt Q75N03 1-491)
chain: MDHTDNELQGTNSSGSLGGLDVRRRIPIKLISKQANKAKPAPRTQRTINRMPAKAPPGDEEGFDYNEEERYDCKGGELFANQRRFPGHLFWDFQINILGEKDDTPVHFCDKCGLPIKIYGRMIPCKHVFCYDCAILHEKKGDKMCPGCSDPVQRIEQCTRGSLFMCSIVQGCKRTYLSQRDLQAHINHRHMRAGKPVTRASLENVHPPIAPPPTEIPERFIMPPDKHHMSHIPPKQHIMMPPPPLQHVPHEHYNQPHEDIRAPPAELSMAPPPPRSVSQETFRISTRKHSNLITVPIQDDSNSGAREPPPPAPAPAHHHPEYQGQPVVSHPHHIMPPQQHYAPPPPPPPPISHPMPHPPQAAGTPHLVYSQAPPPPMTSAPPPITPPPGHIIAQMPPYMNHPPPGPPPPQHGGPPVTAPPPHHYNPNSLPQFTEDQGTLSPPFTQPGGMSPGIWPAPRGPPPPPRLQGPPSQTPLPGPHHPDQTRYRPYYQ
For B2, the binding entry in experiment [2] is “binds”.

B3: PJA1 (hit of the ACSL4 mass spectrometry) (enzyme, UniProt Q8NG27 1-643)
chain: MGQESSKPVWPNPTGGYQSNTGRRYGRRHAYVSFRPPTSQRERIASQRKTNSEVPMHRSAPSQTTKRSRSPFSTTRRSWDDSESSGTNLNIDNEDYSRYPPREYRASGSRRGMAYGHIDSYGADDSEEEGAGPVERPPVRGKTGKFKDDKLYDPEKGARSLAGPPPHFSSFSRDVREERDKLDPVPAARCSASRADFLPQSSVASQSSSEGKLATKGDSSERERREQNLPARPSRAPVSICGGGENTSKSAEEPVVRPKIRNLASPNCVKPKIFFDTDDDDDMPHSTSRWRDTANDNEGHSDGLARRGRGESSSGYPEPKYPEDKREARSDQVKPEKVPRRRRTMADPDFWTHSDDYYKYCDEDSDSDKEWIAALRRKYRSREQTLSSSGESWETLPGKEEREPPQAKVSASTGTSPGPGASASAGAGAGASAGSNGSNYLEEVREPSLQEEQASLEEGEIPWLQYHENDSSSEGDNDSGHELMQPGVFMLDGNNNLEDDSSVSEDLEVDWSLFDGFADGLGVAEAISYVDPQFLTYMALEERLAQAMETALAHLESLAVDVEVANPPASKESIDALPEILVTEDHGAVGQEMCCPICCSEYVKGEVATELPCHHYFHKPCVSIWLQKSGTCPVCRCMFPPPL
In the case of B3, the binding entry in experiment [2] was “binds”.
